PubChem BioAssay AID686943, Drosophila RNAi Screening Center – 2013
Purpose: 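Fly genes whose loss alters ERK activation after insulin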 (primary screen). System: Drosophila S2R+ haemocyte-like cells expressing YFP-tagged ERK (Rolled). Reagents: long dsRNA against Drosophila genes. Treatment: insulin stimulation versus unstimulated cells; dose and duration not given. Measured: 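Antibody staining for doubly phosphorylated ERK divided by ERK-YFP signal, as plate z-scores, in insulin-treated and untreated cells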. Scale: replicate 1, z-score of dpERK with insulin and replicate 2, z-score of dpERK with insulin: higher = more active ERK per ERK-YFP after insulin; replicate 1, z-score of dpERK under basal conditions: higher = more basal active ERK per ERK-YFP; replicate 1, z-score of ERK-YFP with insulin: higher = more YFP-tagged ERK signal.
The screen tested about 23,000 reagents; this is an unselected part of those with a known target gene and a result. 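Extra replicates exist only for a retested subset of genes; insulin dose and duration not given; both raised and lowered dpERK matter.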 A plus sign joins genes that one reagent is predicted to hit. No sequences are given here. Not given: the amount of reagent, the time to read-out.

| gene | DRSC id | replicate 1, z-score of dpERK with insulin | replicate 2, z-score of dpERK with insulin | replicate 1, z-score of dpERK under basal conditions | replicate 1, z-score of ERK-YFP with insulin |
| --- | --- | --- | --- | --- | --- |
| dbf (doublefault) | DRSC02570 | -0.05 | 0.26 | -0.83 | -0.58 |
| CG13144 | DRSC02241 | -0.9 | 0.32 | -0.58 | -0.18 |
| Smug | DRSC15762 | 0.6 | 0.43 | 0.07 | -0.37 |
| NPFR (Neuropeptide F receptor) | DRSC12173 | -1.04 | -0.39 | -0.5 | 0.26 |
| Pis (Phosphatidylinositol synthase) | DRSC20178 | 1.12 | 0.49 | 0.33 | 0.08 |
| CG34230 | DRSC05317 | -0.7 | 0.17 | 2.49 | 0.27 |
| Usp20-33 (Ubiquitin specific protease 20/33) | DRSC07196 | 0.06 | -0.63 | -0.33 | 0.3 |
| Cog7 (Component of oligomeric golgi complex 7) | DRSC16331 | 1.38 | 0.03 | 0.72 | 0.41 |
| CG34125 | DRSC00850 | -0.3 | 0.09 | -0.64 | -0.45 |
| CG34026 | DRSC17616 | 0.64 | 0.03 | 1.55 | 0.43 |
| Lerp (lysosomal enzyme receptor protein) | DRSC14750 | -2.19 | -0.09 | -0.76 | 0.86 |
| Lerp (lysosomal enzyme receptor protein) | DRSC14751 | 0.21 | 0.02 | 0.14 | -0.25 |
| Lerp (lysosomal enzyme receptor protein) | DRSC16030 | 0.61 | -0.09 | -0.25 | 0.11 |
| Lerp (lysosomal enzyme receptor protein) | DRSC16031 | 0.12 | -0.92 | -0.5 | -0.17 |
| Or63a (Odorant receptor 63a) | DRSC08681 | 0.44 | 0.78 | 4.37 | 0.63 |
| Amacr (Alpha-methylacyl-CoA racemase) | DRSC03198 | -0.24 | 1.06 | 0.36 | 0.5 |
| CG31178 | DRSC14590 | 0.6 | -0.67 | -0.27 | -0.07 |
| CG42808 | DRSC06370 | -0.02 | 0.27 | 0.11 | 0.32 |
| fs(1)K10 (female sterile (1) K10) | DRSC18775 | -0.99 | -1.5 | 0.03 | -0.1 |
| CG32137 | DRSC10271 | -0.98 | -0.23 | 0.27 | -0.68 |
| CG32137 | DRSC10272 | -4.04 | -2.43 | -0.97 | 0.27 |
| CG17618 (retired record) + CG45049 | DRSC16163 | 1.31 | 0.03 | -0.23 | 0.32 |
| CG17618 (retired record) + CG45049 | DRSC22054 | -0.87 | -1.38 | -1.52 | -2.18 |
| mRpL36 (mitochondrial ribosomal protein L36) | DRSC10337 | -0.03 | 0.29 | -0.78 | 1.49 |
| Sec24CD (Secretory 24CD) | DRSC00300 | 0.64 | -0.38 | -0.4 | 0.54 |

Copied from above (10 entries):
| gene | DRSC id | replicate 1, z-score of dpERK with insulin | replicate 2, z-score of dpERK with insulin | replicate 1, z-score of dpERK under basal conditions | replicate 1, z-score of ERK-YFP with insulin |
| --- | --- | --- | --- | --- | --- |
| CG34026 | DRSC17616 | 0.64 | 0.03 | 1.55 | 0.43 |
| Lerp (lysosomal enzyme receptor protein) | DRSC14750 | -2.19 | -0.09 | -0.76 | 0.86 |
| Lerp (lysosomal enzyme receptor protein) | DRSC14751 | 0.21 | 0.02 | 0.14 | -0.25 |
| Lerp (lysosomal enzyme receptor protein) | DRSC16030 | 0.61 | -0.09 | -0.25 | 0.11 |
| Lerp (lysosomal enzyme receptor protein) | DRSC16031 | 0.12 | -0.92 | -0.5 | -0.17 |
| Or63a (Odorant receptor 63a) | DRSC08681 | 0.44 | 0.78 | 4.37 | 0.63 |
| Amacr (Alpha-methylacyl-CoA racemase) | DRSC03198 | -0.24 | 1.06 | 0.36 | 0.5 |
| CG31178 | DRSC14590 | 0.6 | -0.67 | -0.27 | -0.07 |
| CG42808 | DRSC06370 | -0.02 | 0.27 | 0.11 | 0.32 |
| fs(1)K10 (female sterile (1) K10) | DRSC18775 | -0.99 | -1.5 | 0.03 | -0.1 |

Continued.
| gene | DRSC id | replicate 1, z-score of dpERK with insulin | replicate 2, z-score of dpERK with insulin | replicate 1, z-score of dpERK under basal conditions | replicate 1, z-score of ERK-YFP with insulin |
| --- | --- | --- | --- | --- | --- |
| TpnC41C (Troponin C at 41C) | DRSC04916 | -0.54 | -0.32 | 0.41 | 0.34 |
| cyr (cypher) | DRSC18017 | 0.28 | -0.49 | -0.08 | -0.15 |
| cyr (cypher) | DRSC18018 | 0.1 | 1.12 | -0.05 | 0.15 |
| cyr (cypher) | DRSC18021 | -0.23 | -0.68 | 1.03 | 1.48 |
| CG4462 | DRSC15583 | -0.65 | 0.05 | -0.46 | 0.34 |
| CG6195 | DRSC15989 | -0.72 | -0.29 | 0.04 | 0.61 |
| Gr47b (Gustatory receptor 47b) | DRSC05275 | 0.24 | -0.17 | 0.52 | -0.36 |
| CG33494 | DRSC13715 | -1.05 | -1.89 | 0.88 | -0.13 |
| CG31008 | DRSC14028 | -0.11 | 0.15 | -0.03 | 1.34 |
| CG15753 (retired record) | DRSC18982 | 0.03 | 1.1 | 0.48 | -0.13 |
| CG15753 (retired record) | DRSC19503 | 0.03 | 0.22 | -0.24 | 0.57 |
| CG15753 (retired record) | DRSC19716 | 0.17 | 0.84 | 0.39 | -0.06 |
| CG15753 (retired record) | DRSC19717 | 0.02 | 0.27 | 0.06 | -0.13 |
| CG15753 (retired record) | DRSC19718 | -4.13 | -2.59 | -1.94 | -1.97 |
| Cpr65Ax2 + Cpr65Ax1 | DRSC10341 | 0.2 | 0.29 | – | 0.02 |
| Cpr65Ax2 + Cpr65Ax1 | DRSC10344 | 0.64 | -0.02 | 1.38 | -0.26 |
| CG32413 | DRSC21591 | 0.14 | 0.92 | -0.79 | -0.92 |
| CG1387 | DRSC17904 | 0.8 | 1 | 0.11 | 0.61 |
| Daxx (Daxx-like protein) | DRSC03255 | 0.37 | 1.1 | -0.65 | -0.19 |
| pHCl-2 (pH-sensitive chloride channel 2) | DRSC14306 | 1.41 | -0.05 | 1.68 | 0.24 |
| Ubc84D (Ubiquitin conjugating enzyme 84D) | DRSC12610 | 0.54 | 1.06 | 1.6 | -0.24 |
| CG17751 | DRSC15261 | 1.51 | -0.19 | -0.55 | 0.27 |
| CG17751 | DRSC22837 | 0.32 | -0.18 | -0.77 | 1.33 |
| grh (grainy head) | DRSC05680 | 0.37 | 0.98 | 1.8 | 0.88 |
| grh (grainy head) | DRSC05683 | -3.96 | -4.45 | -1.27 | 2.97 |
| grh (grainy head) | DRSC07624 | 0.8 | -0.14 | 0.73 | -0.43 |
| grh (grainy head) | DRSC07625 | 0 | -0.84 | -0.82 | 0.77 |
| mmm (missing minor mitochondria) | DRSC10208 | 0.38 | -0.05 | 1.13 | -0.24 |
| CG7252 | DRSC10789 | 0.13 | -0.17 | -0.35 | 0.57 |
| CG7252 | DRSC21492 | 0.4 | -0.37 | -0.4 | 0.29 |
| sty (sprouty) | DRSC08737 | 1.11 | 0.05 | -0.47 | 0.05 |
| CG43666 + CG43667 + CG43668 | DRSC03829 | -0.41 | 1.37 | 1.06 | 0.13 |
| CG43666 + CG43667 + CG43668 | DRSC04233 | -0.7 | -0.35 | -0.45 | -0.02 |
